Our source for the binding values is doi:10.1101/2024.11.04.621965.

By UniProt entry, the sequences of proteins in these tests, tags left out. Where a name states a change or a piece, a line headed by the entry shows the natural chain unless it says otherwise.
UniProt F4IVI0: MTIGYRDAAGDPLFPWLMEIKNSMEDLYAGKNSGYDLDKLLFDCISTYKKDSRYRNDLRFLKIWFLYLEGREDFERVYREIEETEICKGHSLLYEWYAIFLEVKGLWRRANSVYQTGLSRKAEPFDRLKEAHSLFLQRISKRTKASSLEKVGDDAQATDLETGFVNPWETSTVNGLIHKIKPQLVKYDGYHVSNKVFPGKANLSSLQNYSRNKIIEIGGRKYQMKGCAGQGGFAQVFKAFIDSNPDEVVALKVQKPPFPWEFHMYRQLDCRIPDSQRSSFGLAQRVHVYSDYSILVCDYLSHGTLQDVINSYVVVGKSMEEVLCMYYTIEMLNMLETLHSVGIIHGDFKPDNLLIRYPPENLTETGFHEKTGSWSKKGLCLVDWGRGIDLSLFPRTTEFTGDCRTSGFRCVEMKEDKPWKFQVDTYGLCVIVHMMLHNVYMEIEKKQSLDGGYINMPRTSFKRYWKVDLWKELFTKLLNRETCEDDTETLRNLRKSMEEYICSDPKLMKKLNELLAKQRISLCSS

These are yes or no findings as the source states them, for the method shown. Binding calls can cover weak binding; strength is not graded here. Tags and fused reporters may be left off the sequences shown.

Holding throughout (test): two-hybrid
The target of assay [1] is T1, Arabidopsis MIS12 (Y2H fusion) (Arabidopsis thaliana) (UniProt Q2V0Z5).
T1 sequence: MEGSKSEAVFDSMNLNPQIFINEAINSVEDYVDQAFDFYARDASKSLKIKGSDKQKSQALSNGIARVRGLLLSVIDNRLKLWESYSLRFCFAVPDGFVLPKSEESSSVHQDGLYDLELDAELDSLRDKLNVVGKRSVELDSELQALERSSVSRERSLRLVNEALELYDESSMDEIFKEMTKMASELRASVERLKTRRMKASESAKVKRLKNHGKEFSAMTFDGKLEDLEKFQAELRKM

Assay [2] has as its target T2, Arabidopsis CENP-C (Y2H fusion) (Arabidopsis thaliana) (UniProt Q66LG9).
T2 sequence: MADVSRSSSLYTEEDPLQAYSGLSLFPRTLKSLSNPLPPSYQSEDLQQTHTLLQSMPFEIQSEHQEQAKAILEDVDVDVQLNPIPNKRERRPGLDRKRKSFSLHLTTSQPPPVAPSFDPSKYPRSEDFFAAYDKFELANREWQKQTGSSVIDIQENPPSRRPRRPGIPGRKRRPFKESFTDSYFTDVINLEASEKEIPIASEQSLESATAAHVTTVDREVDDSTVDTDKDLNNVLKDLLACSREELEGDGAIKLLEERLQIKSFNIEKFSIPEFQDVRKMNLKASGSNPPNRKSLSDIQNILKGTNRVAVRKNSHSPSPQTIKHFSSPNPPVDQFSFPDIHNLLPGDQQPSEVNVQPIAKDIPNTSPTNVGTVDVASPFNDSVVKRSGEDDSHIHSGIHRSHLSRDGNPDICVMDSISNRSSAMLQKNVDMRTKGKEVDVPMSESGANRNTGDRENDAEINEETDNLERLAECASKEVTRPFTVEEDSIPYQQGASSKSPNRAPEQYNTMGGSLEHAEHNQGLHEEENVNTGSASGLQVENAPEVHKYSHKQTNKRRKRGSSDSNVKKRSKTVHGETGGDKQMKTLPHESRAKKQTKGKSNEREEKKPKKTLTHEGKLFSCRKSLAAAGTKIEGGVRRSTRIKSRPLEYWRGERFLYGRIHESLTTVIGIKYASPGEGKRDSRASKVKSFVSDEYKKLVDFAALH

In assay [3] the target is Arabidopsis BMF3 (Y2H fusion) (Arabidopsis thaliana) (UniProt Q9FFG4).
Assay [4] concerns the target Arabidopsis KNL1, ESD containing region (Y2H fusion) (Arabidopsis thaliana).
Assay [5] addresses Arabidopsis KNL1 (Y2H fusion) (Arabidopsis thaliana).
The target in assay [6] is Arabidopsis KNL1, CC domain (Y2H fusion) (Arabidopsis thaliana).
Assay [7] concerns the target Arabidopsis NNF1 (Y2H fusion) (Arabidopsis thaliana).
In assay [8] the target is Arabidopsis KNL1, region from amino acids 350 to 450 (Y2H fusion) (Arabidopsis thaliana).

On to “Arabidopsis SPC24 (Y2H fusion; paralog not told in the text)”, for which the binding result in assay [1] is on record as “binds”.
With “Arabidopsis BMF1 (Y2H fusion) (from UniProt F4IVI0)”, the binding result in assay [2] is on record as “binds”.

B1: Arabidopsis MAD1 (Y2H fusion) (protein, UniProt Q9LTY1 1-726)
chain: MILRTPQPKRLRSDAGESPFPTGATGSGNQLIIYEDSPLPAPAPLQTSHDHSADQHLCTYQCRQMVKADVLDALSTAEKQVEESKTKLQTLNANFTEADAERKHFRDKFLYSEQELAAAKAREKMLQEQLLMEINNSQERYTKELQSCHELEVKLQNEMNLRKKAESSAATAEEKAKLLEDKLTQLSGSVDREKKRLNNDIAQLGKEAKLSVARIGADLERMQCRAQNAETESNLLRSQLEHLKLIFDECLQEKTEVDKKLSSFTSEAASSSDNSVLVKHLQEELKRYEAEVREARKLKSRHLDAELLNVNLLEEQSRRERAESELSKFHDLQLSMEKLENELSSWKSLLNDIPGVSCPDDIVMRFSVLQNEVVQSTMKIGEASTRIKQLEETLEAIQLGRQNAVSEAALAKEKSEALKTDVKRIEVMLTLVTEEKEQLKAVVNELRKSNSEGSVSGAADGALIQGFESSLAKKENYIKDLEQDLNQLKDVNNRQRTEIELLNEKLVDEARRNKSLERDSDRLRSEISLLESKLGHGDYSAANTRVLRMVNTLGVENEAKQTIEALQAELQKTKERLQAVEELKSQSGDAGKLVDSHITGKIAQLKEQNATLEKREERYKTVFADRISVFRRACCELFGYKIVMDEHQRPNGIPVTRFTLQSIYAQSDDEKLEFEYESGNTSILNNEYASQGDIAKQIEIFIRKFNSIPAFTANLTMESFNRRTLY
For B1, the binding result in assay [3], in assay [4] and in assay [5] was “binds” throughout.

B2: Arabidopsis MIS12 (Y2H fusion) (protein, UniProt Q2V0Z5 1-238)
chain: MEGSKSEAVFDSMNLNPQIFINEAINSVEDYVDQAFDFYARDASKSLKIKGSDKQKSQALSNGIARVRGLLLSVIDNRLKLWESYSLRFCFAVPDGFVLPKSEESSSVHQDGLYDLELDAELDSLRDKLNVVGKRSVELDSELQALERSSVSRERSLRLVNEALELYDESSMDEIFKEMTKMASELRASVERLKTRRMKASESAKVKRLKNHGKEFSAMTFDGKLEDLEKFQAELRKM
For B2, the binding entry in assay [6], in assay [7], in assay [4] and in assay [5] was “binds” throughout.

B3: Arabidopsis MPS1 (Y2H fusion) (enzyme, UniProt Q84VX4 1-777)
chain: MDREDNLPVQPDKPPKSLVRPILNLETTSSSSSSSSSSPELLRHLQAAFKRHRPLSKMQTTSIGPRRSVAPQRQASRNTRLVTAEGQRSQDVVTLSQSLAANTLTQDTTNNLAITSVAGESASITQPTVSEHFNPSDRQMDFGKSAVTSLESNLDVQRKSQSLIGTSQDMEWDATNQAEASHLDACIGSKHQNLPSVDSEVSLKSEYKDSSSLAKIQGQLGEFPNFLNQPRTRCSAVGSSWATTTLIHSSSAPMLNATTHVSRSYVEADSNANPHAVQSQGNLPSCCPSSKVSNILHPNKDATASEMPASTNDPEVRVKETDTSKQQQITTGLEAPVGSSIYGSDGQANARLPEELHTSVSSQPQKSDKHEKVASSKGPSAPRKRNYDPDLFFKVNGKLYQRLGKIGSGGSSEVHKVISSDCTIYALKKIKLKGRDYATAYGFCQEIGYLKKLKGKTNIIQLIDYEVTDKTLLQEVLNGTMSNKDGRVKEDGFIYMVLEYGEIDLAHMLSQKWREIEGSDRTIDENWLRFYWQQILQAVNTIHEERIVHSDLKPANFLLVRGFLKLIDFGIAKAINSDTTNIQRDSQVGTLSYMSPEAFMCNESDENGNTIKCGRPSDIWSLGCILYQMVYGRTPFADYKTFWAKFKVITDPNHEITYNQLSNPWLIDLMKKCLAWDRNQRWRIPELLQHPFLAPPIPHEPQVKTIKLFSLIAESCGSDDDKANSMISQLEQLLSNPAPLPRNDVLDSRDQNQQLLSRVSELCIQLQDRLQGLEGEN
Consider B3, for which the binding entry in assay [8] and in assay [5] was “binds” throughout.

B4: Arabidopsis NUF2 (Y2H fusion) (protein, UniProt Q8RXJ0 1-440)
chain: MSAYEYPRLSRSDIITALKDAQIASVTETDLKTPTSDFVSELYTRILIYLDALDEEEKGQVDFEALEQLENPDHHATSMQAMKLYCKVKDMLEMLDCPLPISFKDLLRPESSRTEFFISALLNYGLYKDSKMDLIRPKAEELGLLDEQRKQCEAKVAQLNAEIGEFDEAVERDLPFVQELEANIEQLNKKILELNNQQMSLRATFQKMREKSTQMDNEISKAEFDLVETVQENANLRSQIVQSPDKLQGALEEKKLVLGETKKAEQSAMVTFQEKAAILEVFEKALKKILKSSSQLQLINEQVTNAKTVEKEFKALKDKLSEDGVAYKSLEAKVVERERIVEQLNESLKQLEKEKAVMFDDWTKQLNELKVEVESRRRELETRQTNVESVVAMVDDNTAKTNQVRQSGEAKVKKLAAKYEEIVKQFHEYTVSFDAFLPSL
As for B4, the binding entry in assay [6], in assay [4] and in assay [5] was “binds” in each case.
